These are yes or no findings as the source states them, for the method shown. Binding calls can cover weak binding; strength is not graded here.
Target: T1, …1 (Arabidopsis (endogenous in leaves)) (UniProt P32961)
T1 sequence: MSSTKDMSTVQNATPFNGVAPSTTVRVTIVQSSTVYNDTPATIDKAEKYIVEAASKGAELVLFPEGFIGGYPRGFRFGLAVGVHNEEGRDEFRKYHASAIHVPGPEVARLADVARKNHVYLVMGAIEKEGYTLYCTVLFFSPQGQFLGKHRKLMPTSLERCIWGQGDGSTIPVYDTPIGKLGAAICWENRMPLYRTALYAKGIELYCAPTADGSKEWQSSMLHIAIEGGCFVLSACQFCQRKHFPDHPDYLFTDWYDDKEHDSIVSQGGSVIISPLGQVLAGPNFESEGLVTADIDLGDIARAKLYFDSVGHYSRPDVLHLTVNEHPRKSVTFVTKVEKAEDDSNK
Experiment: SEC; protein correlation profiling: cholate-solubilized Arabidopsis leaf microsomal proteins on Superdex 200 10/300 GL or Superose 6 10 x 300 GL at 6 °C; 50 mM HEPES-KOH pH 7.8, 100 mM NaCl, 10 mM MgCl2, 5% glycerol, 0.1% sodium cholate; fractions quantified by label-free LC-MS/MS; two biological replicates

binding: binds
Sequence: THIOREDEXOIN M-TYPE1 (Arabidopsis (endogenous in leaves))

Reference: publication PMC5672003
